This test deals with T1, PeaTAR1B (PeaTAR1B-HA) (Periplaneta americana, UniProt A0A239QQ38).
T1 construct: stably expressed in HEK 293 flpTM cells
T1 sequence (A0A239QQ38 1-481): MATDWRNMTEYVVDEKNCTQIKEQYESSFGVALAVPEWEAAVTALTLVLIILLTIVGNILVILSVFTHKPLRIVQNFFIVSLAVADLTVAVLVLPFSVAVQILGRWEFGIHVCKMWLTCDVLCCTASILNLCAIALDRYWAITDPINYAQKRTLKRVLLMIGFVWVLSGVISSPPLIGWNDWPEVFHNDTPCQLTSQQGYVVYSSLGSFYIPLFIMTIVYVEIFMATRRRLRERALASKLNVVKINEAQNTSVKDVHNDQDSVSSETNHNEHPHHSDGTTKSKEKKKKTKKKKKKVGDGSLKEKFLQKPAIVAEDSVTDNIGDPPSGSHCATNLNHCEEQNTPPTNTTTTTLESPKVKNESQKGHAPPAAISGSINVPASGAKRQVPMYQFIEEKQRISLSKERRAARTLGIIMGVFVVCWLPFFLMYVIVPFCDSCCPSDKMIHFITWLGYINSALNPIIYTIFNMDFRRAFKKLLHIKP
In words: block of tyramine-induced attenuation of NKH 477-stimulated cAMP, CNG channel / Fluo-4 fluorescence in HEK […] flpTM cells. The test is classed as cell-based.

As a reminder, the IC50 is the concentration that gives 50% inhibition. A lower IC50 goes with greater potency in that assay. For the compound `CN1CCN2c3ccccc3Cc3ccccc3C2C1` (stereo not shown) [mianserin], the concentration for half-maximal inhibition (IC50) was determined as 868 nM. This lies in the sub-micromolar range.

The values are drawn from article PMC5713249, “PeaTAR1B: Characterization of a Second Type 1 Tyramine Receptor of the American Cockroach, Periplaneta americana” (International Journal of Molecular Sciences, 2017).
